Laboratory results reported in the supplement of paper PMC6411743.
± gives the standard deviation of the averaged measurements. Only a part is listed here, and it is no random draw.

By UniProt entry, the sequences of proteins in these tests, tags left out. Where a name states a change or a piece, a line headed by the entry shows the natural chain unless it says otherwise.
UniProt P28066: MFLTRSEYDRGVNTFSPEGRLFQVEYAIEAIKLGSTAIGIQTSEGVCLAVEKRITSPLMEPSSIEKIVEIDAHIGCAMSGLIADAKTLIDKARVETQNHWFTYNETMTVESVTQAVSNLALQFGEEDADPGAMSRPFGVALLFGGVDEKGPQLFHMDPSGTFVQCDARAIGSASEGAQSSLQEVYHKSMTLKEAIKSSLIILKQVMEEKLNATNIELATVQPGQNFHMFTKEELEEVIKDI
UniProt P30825: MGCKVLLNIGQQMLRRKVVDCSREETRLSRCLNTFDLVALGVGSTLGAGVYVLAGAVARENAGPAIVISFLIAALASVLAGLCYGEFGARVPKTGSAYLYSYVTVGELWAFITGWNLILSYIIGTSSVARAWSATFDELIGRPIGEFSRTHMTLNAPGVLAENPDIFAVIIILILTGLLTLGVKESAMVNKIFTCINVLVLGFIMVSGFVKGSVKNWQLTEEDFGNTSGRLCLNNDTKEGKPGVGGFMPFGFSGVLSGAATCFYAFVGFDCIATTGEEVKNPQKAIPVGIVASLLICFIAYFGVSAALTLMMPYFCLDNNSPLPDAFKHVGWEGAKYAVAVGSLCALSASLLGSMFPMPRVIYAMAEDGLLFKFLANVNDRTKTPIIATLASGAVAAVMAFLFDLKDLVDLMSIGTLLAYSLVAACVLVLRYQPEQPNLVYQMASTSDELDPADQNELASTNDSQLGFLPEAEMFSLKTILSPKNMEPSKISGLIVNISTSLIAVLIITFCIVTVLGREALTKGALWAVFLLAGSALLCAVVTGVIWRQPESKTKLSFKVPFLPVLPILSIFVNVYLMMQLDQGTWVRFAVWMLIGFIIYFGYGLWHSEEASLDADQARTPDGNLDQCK
UniProt P25705: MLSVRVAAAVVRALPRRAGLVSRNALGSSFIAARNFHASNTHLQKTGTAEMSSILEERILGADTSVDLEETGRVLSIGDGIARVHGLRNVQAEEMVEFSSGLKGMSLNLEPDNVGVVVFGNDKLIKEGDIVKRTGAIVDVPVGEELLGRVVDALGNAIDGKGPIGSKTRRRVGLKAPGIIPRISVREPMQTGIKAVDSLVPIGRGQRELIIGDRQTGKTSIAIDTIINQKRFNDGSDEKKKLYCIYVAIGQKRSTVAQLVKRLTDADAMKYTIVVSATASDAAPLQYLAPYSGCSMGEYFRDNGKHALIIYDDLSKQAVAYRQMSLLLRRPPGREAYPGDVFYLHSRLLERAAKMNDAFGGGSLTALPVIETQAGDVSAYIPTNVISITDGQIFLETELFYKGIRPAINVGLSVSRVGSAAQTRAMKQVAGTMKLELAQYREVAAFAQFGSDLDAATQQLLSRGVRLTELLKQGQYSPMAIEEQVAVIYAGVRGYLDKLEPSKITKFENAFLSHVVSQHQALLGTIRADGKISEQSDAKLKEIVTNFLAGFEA
UniProt P30281: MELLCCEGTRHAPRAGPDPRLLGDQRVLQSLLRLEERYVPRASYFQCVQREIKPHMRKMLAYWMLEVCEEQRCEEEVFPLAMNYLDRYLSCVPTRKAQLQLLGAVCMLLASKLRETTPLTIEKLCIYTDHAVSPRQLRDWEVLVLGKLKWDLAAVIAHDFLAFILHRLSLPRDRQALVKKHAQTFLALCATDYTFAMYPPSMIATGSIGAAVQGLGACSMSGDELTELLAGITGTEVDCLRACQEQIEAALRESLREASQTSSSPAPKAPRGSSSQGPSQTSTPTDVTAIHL
UniProt P31749: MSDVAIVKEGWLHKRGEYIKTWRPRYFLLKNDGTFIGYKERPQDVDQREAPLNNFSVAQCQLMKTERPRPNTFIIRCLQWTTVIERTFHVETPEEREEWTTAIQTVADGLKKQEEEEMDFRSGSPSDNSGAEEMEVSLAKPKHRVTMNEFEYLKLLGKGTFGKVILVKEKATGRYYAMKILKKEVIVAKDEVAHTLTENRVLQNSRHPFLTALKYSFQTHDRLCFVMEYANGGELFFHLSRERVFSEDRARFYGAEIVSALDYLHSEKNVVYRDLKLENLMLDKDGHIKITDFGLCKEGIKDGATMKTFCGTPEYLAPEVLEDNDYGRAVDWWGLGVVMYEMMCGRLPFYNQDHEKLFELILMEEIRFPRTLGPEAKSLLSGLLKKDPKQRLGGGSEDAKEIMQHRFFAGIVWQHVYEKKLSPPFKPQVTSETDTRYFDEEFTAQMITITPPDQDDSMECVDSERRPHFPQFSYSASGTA
UniProt P28702: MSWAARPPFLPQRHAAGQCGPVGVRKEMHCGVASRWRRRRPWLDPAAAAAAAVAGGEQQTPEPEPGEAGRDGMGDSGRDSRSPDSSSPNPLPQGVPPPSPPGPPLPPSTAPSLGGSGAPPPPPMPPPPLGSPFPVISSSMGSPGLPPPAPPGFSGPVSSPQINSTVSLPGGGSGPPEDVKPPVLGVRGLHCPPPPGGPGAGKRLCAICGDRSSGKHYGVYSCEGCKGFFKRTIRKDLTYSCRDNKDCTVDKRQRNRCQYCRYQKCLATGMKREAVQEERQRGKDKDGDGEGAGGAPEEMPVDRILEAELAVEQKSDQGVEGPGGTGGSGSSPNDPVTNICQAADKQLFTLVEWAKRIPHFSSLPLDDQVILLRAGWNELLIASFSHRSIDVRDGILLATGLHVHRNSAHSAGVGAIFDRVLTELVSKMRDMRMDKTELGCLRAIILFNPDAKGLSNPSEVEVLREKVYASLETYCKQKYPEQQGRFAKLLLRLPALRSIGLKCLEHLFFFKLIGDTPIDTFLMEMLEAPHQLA
UniProt P36915, whole entry: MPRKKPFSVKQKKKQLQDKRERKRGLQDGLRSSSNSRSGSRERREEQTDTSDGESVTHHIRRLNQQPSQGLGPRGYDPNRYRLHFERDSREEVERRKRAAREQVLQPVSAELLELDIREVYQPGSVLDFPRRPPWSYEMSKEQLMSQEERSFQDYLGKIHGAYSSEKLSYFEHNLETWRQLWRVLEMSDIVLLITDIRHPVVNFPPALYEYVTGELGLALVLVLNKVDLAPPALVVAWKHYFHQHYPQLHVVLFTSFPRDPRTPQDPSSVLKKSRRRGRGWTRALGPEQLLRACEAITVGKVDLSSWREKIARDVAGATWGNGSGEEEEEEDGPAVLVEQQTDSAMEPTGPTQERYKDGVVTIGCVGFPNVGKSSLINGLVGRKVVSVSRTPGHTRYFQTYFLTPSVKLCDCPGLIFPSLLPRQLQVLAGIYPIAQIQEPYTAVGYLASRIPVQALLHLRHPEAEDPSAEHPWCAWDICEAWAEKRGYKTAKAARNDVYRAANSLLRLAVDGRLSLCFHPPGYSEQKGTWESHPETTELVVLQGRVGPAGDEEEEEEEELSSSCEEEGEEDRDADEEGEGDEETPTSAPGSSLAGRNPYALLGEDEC
UniProt P17900: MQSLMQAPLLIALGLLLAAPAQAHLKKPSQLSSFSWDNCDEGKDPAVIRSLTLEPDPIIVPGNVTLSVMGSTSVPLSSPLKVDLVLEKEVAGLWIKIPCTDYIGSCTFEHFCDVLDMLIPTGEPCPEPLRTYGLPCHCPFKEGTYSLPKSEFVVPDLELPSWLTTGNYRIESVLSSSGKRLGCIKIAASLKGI
UniProt P21964: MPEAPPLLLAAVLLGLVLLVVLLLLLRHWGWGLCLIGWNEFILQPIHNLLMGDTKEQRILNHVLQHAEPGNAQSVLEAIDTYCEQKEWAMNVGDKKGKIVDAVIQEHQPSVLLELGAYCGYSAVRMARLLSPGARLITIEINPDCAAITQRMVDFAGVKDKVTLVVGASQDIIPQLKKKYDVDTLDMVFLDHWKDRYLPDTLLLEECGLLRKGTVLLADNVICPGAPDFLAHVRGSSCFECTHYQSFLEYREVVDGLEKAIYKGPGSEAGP
UniProt P21281, whole entry: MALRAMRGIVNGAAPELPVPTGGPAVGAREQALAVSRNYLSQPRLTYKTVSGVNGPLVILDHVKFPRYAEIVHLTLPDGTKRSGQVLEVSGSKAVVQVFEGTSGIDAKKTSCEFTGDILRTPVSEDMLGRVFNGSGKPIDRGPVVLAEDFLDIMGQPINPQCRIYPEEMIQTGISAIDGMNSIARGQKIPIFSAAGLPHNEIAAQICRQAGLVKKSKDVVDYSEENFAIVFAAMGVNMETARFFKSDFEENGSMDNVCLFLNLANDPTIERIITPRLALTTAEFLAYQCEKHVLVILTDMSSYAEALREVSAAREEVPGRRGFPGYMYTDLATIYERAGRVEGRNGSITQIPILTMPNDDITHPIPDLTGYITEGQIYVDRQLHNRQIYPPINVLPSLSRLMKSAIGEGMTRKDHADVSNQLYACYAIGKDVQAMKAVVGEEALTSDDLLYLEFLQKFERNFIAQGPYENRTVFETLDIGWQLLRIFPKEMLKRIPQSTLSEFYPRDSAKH
UniProt P26038, whole entry: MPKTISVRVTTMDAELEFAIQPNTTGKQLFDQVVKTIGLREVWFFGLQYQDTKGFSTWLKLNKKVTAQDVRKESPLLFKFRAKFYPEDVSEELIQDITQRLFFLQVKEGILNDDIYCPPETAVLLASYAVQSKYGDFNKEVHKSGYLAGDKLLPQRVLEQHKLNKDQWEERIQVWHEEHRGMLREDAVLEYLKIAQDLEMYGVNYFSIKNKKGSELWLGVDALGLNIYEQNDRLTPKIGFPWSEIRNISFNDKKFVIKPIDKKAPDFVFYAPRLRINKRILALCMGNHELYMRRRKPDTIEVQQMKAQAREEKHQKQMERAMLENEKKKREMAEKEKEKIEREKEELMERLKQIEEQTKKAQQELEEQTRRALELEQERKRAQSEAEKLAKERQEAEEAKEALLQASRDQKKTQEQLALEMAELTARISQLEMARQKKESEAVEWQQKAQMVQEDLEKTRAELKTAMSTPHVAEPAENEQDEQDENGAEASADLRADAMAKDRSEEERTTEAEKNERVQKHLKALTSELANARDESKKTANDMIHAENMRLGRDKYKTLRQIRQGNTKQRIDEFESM
UniProt P18669: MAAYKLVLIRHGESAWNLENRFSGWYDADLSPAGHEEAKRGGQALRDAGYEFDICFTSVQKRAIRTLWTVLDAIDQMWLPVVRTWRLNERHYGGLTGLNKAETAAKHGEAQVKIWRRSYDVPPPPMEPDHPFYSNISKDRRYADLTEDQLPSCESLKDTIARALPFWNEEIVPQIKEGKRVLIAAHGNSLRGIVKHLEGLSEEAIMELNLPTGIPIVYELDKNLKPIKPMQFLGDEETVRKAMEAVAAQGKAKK
UniProt P17706: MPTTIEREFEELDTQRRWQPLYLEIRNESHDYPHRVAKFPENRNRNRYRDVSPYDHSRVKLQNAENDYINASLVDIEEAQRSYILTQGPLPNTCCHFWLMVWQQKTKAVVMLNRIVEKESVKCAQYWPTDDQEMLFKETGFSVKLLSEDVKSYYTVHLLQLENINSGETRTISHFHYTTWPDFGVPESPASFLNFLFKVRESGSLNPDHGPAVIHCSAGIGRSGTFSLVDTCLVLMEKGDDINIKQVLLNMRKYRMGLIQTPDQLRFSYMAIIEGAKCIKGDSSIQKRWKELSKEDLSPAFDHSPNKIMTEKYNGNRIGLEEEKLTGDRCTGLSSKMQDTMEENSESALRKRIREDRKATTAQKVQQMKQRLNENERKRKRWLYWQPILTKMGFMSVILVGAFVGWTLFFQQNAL
UniProt P17028: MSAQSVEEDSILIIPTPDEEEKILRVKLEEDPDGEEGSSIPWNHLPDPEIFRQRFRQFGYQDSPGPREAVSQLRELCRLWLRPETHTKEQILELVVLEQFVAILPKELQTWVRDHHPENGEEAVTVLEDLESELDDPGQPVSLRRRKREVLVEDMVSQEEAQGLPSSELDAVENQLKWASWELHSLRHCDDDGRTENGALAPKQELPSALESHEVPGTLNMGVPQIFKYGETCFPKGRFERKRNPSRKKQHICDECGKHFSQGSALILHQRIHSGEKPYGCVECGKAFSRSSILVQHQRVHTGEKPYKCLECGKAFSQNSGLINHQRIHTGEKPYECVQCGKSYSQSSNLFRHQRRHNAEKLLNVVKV
UniProt P32942: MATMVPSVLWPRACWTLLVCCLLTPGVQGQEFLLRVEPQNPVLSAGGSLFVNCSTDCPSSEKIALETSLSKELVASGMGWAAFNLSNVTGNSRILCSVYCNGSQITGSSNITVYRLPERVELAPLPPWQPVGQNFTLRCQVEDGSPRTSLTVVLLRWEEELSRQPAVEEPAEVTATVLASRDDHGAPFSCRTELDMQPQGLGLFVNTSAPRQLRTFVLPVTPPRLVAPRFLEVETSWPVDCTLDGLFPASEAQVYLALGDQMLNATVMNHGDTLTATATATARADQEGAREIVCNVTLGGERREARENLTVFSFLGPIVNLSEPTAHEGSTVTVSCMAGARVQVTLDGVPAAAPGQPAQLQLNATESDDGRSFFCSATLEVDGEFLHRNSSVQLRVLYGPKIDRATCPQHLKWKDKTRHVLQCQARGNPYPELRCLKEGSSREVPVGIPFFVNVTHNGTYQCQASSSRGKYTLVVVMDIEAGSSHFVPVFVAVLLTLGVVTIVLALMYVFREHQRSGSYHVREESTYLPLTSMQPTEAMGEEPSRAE

Compound: Nc1ncnc2c1ncn2[C@@H]1O[C@H](COP(=O)(O)OP(=O)(O)NP(=O)(O)O)[C@@H](O)[C@H]1O [adenylyl imidodiphosphate]
Test: NP40-soluble protein abundance relative to vehicle (solubility fold change) (ratio); higher = more soluble protein in presence of AMP-PNP
Summary of the method: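 In three independent experiments, Jurkat crude lysate made by Dounce homogenisation was treated for 10 min at room temperature and then 3 min at 37 °C with eight concentrations ranging from 0.1 to 10 mM. It was then solubilised with 0.8% NP40 plus benzonase for 60 min at 4 °C and ultracentrifuged. The supernatant was TMT-labelled for LC-MS/MS, and each value is the fold change against the detergent-processed vehicle for the same replicate, using vsn-normalised intensities.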

Target	NP40-soluble protein abundance (concentration: 1mM)	NP40-soluble protein abundance (concentration: 2mM)	NP40-soluble protein abundance (concentration: 4mM)	NP40-soluble protein abundance (concentration: 6mM)	NP40-soluble protein abundance (concentration: 8mM)	NP40-soluble protein abundance (concentration: 10mM)
UniProt P28066 and related entries	1 ± 0.041	0.997 ± 0.023	0.968 ± 0.051	0.952 ± 0.081	0.925 ± 0.076	0.917 ± 0.11
HIBADH (UniProt P31937)	1.04 ± 0.041	1.06 ± 0.044	1.03 ± 0.033	0.993 ± 0.011	0.998 ± 0.0079	0.989 ± 0.039
RRM1 (UniProt P23921)	0.992 ± 0.037	0.877 ± 0.088	0.951 ± 0.031	0.955 ± 0.076	0.989 ± 0.063	0.928 ± 0.08
UniProt P36542	0.941 ± 0.047	0.872 ± 0.056	0.889 ± 0.068	1.006 ± 0.0096	0.9834 ± 0.0089	0.969 ± 0.1
SLC7A1 (UniProt P30825)	0.989 ± 0.005	1 ± 0.11	0.977 ± 0.012	0.97 ± 0.068	0.9401 ± 0.0085	0.922 ± 0.02
UniProt P19838 and related entries	0.998 ± 0.015	0.955 ± 0.064	0.962 ± 0.016	0.966 ± 0.031	0.948 ± 0.023	0.929 ± 0.025
UniProt P33240 and related entries	1.02 ± 0.024	1.07 ± 0.063	1.02 ± 0.04	0.9986 ± 0.0025	0.977 ± 0.024	0.991 ± 0.051
UniProt P25705 and related entries	0.973 ± 0.036	0.929 ± 0.044	0.934 ± 0.044	0.982 ± 0.021	0.976 ± 0.03	0.961 ± 0.077
UniProt P38398 and related entries	1.01 ± 0.03	1.08 ± 0.054	1.02 ± 0.022	0.993 ± 0.038	0.959 ± 0.018	1.02 ± 0.014
PSMB6 (UniProt P28072)	0.934 ± 0.038	0.926 ± 0.061	0.898 ± 0.064	0.917 ± 0.086	0.904 ± 0.094	0.914 ± 0.11
UniProt P20340-2	1.02 ± 0.031	0.958 ± 0.049	0.991 ± 0.053	0.995 ± 0.049	1.01 ± 0.016	1.01 ± 0.068
UniProt P30281 and related entries	0.988 ± 0.023	0.92 ± 0.035	0.982 ± 0.023	0.979 ± 0.038	1.02 ± 0.012	0.98 ± 0.042
POLR2C (UniProt P19387)	0.976 ± 0.022	0.95 ± 0.058	0.941 ± 0.042	0.905 ± 0.062	0.882 ± 0.04	0.908 ± 0.065
HMGB2 (UniProt P26583)	1.06 ± 0.14	1.23 ± 0.093	1.04 ± 0.12	1.12 ± 0.073	1.2 ± 0.021	1.19 ± 0.054
UniProt P35221 and related entries	1.03 ± 0.036	1.04 ± 0.052	0.989 ± 0.026	0.978 ± 0.026	0.953 ± 0.033	0.959 ± 0.019
DNAJA1 (UniProt P31689)	0.919 ± 0.03	0.914 ± 0.051	0.892 ± 0.062	0.865 ± 0.071	0.837 ± 0.066	0.835 ± 0.058
UniProt P19174 and related entries	0.955 ± 0.052	0.863 ± 0.096	0.957 ± 0.018	0.925 ± 0.019	0.953 ± 0.019	0.9011 ± 0.009
POLR2E (UniProt P19388)	0.967 ± 0.035	0.937 ± 0.058	0.987 ± 0.032	0.992 ± 0.013	1.03 ± 0.024	1 ± 0.068
AKT1 (UniProt P31749)	0.989 ± 0.048	0.97 ± 0.024	1.02 ± 0.025	1.03 ± 0.048	1.02 ± 0.044	1.06 ± 0.052
UniProt P28702 and related entries	0.999 ± 0.026	1.02 ± 0.015	1.01 ± 0.019	0.9937 ± 0.0096	0.979 ± 0.025	0.987 ± 0.019
UniProt P26639	0.974 ± 0.018	0.904 ± 0.07	0.9517 ± 0.0031	0.94 ± 0.017	0.968 ± 0.01	0.9179 ± 0.0046
GNL1 (UniProt P36915)	0.987 ± 0.055	0.946 ± 0.017	0.987 ± 0.049	1 ± 0.048	1.03 ± 0.036	1.02 ± 0.034
UniProt P29350 and related entries	1.01 ± 0.02	0.965 ± 0.036	0.985 ± 0.025	0.969 ± 0.014	0.987 ± 0.024	0.956 ± 0.024

Target	NP40-soluble protein abundance (concentration: 1mM)	NP40-soluble protein abundance (concentration: 2mM)	NP40-soluble protein abundance (concentration: 4mM)	NP40-soluble protein abundance (concentration: 6mM)	NP40-soluble protein abundance (concentration: 8mM)	NP40-soluble protein abundance (concentration: 10mM)
UniProt P30048 and related entries	0.9708 ± 0.0081	0.95 ± 0.025	0.901 ± 0.022	0.874 ± 0.068	0.801 ± 0.083	0.722 ± 0.12
WARS (UniProt P23381)	0.987 ± 0.032	0.959 ± 0.065	0.997 ± 0.027	0.995 ± 0.03	1.02 ± 0.024	0.991 ± 0.023
EEF1B2 (UniProt P24534)	1.09 ± 0.18	0.936 ± 0.22	0.93 ± 0.067	0.822 ± 0.21	0.863 ± 0.12	0.845 ± 0.12
GM2A (UniProt P17900)	0.993 ± 0.035	0.987 ± 0.025	0.982 ± 0.042	0.9732 ± 0.0092	0.971 ± 0.016	0.955 ± 0.031
FEN1 (UniProt P39748)	1.02 ± 0.018	1.04 ± 0.081	1.01 ± 0.07	1.04 ± 0.022	0.991 ± 0.053	1.04 ± 0.059
UniProt P21964 and related entries	0.963 ± 0.039	0.894 ± 0.068	0.937 ± 0.035	0.95 ± 0.018	0.962 ± 0.03	0.919 ± 0.038
UniProt P17980 and related entries	0.932 ± 0.041	0.905 ± 0.055	0.906 ± 0.058	0.87 ± 0.1	0.877 ± 0.082	0.876 ± 0.1
ATP6V1B2 (UniProt P21281)	1.01 ± 0.047	1 ± 0.042	0.971 ± 0.019	0.969 ± 0.064	0.94 ± 0.042	0.96 ± 0.069
TUBG1 (UniProt P23258)	0.994 ± 0.097	0.969 ± 0.13	0.998 ± 0.095	1.03 ± 0.12	1.02 ± 0.11	1.07 ± 0.18
UniProt P18206 and related entries	0.9694 ± 0.0051	1.02 ± 0.058	0.976 ± 0.033	0.985 ± 0.022	0.947 ± 0.039	0.96 ± 0.044
CHM (UniProt P24386)	0.97 ± 0.023	0.96 ± 0.048	1.01 ± 0.02	0.961 ± 0.016	0.9506 ± 0.003	0.959 ± 0.04
UniProt P26038 and related entries	0.967 ± 0.13	1.06 ± 0.14	0.988 ± 0.13	0.916 ± 0.088	0.935 ± 0.012	0.936 ± 0.067
PGAM1 (UniProt P18669)	0.934 ± 0.098	0.942 ± 0.039	0.899 ± 0.1	0.952 ± 0.034	0.972 ± 0.074	0.938 ± 0.11
UniProt P17706 and related entries	0.943 ± 0.054	0.971 ± 0.017	0.981 ± 0.074	1.017 ± 0.0033	0.989 ± 0.037	1.02 ± 0.04
ZNF24 (UniProt P17028)	0.977 ± 0.049	0.978 ± 0.032	0.973 ± 0.06	0.989 ± 0.055	1.01 ± 0.049	1.01 ± 0.028
UniProt P23610	1.02 ± 0.056	0.963 ± 0.03	1.01 ± 0.058	0.937 ± 0.04	0.998 ± 0.048	0.917 ± 0.054
UniProt P21359 and related entries	0.979 ± 0.014	0.951 ± 0.034	0.9712 ± 0.0078	0.955 ± 0.025	0.954 ± 0.029	0.928 ± 0.046
ICAM3 (UniProt P32942)	1.03 ± 0.025	1.09 ± 0.082	1.02 ± 0.035	1.03 ± 0.051	0.969 ± 0.031	1.02 ± 0.085
UniProt P26358 and related entries	1.02 ± 0.013	1.017 ± 0.0047	1.011 ± 0.0092	1.015 ± 0.008	1.01 ± 0.0058	1.03 ± 0.031
UniProt P31629	0.965 ± 0.038	1.06 ± 0.058	0.988 ± 0.01	1.01 ± 0.023	0.954 ± 0.026	0.977 ± 0.033
DLST (UniProt P36957)	1 ± 0.17	0.979 ± 0.17	1 ± 0.18	1.01 ± 0.2	1.01 ± 0.15	1.05 ± 0.23
UniProt P30044 and related entries	0.994 ± 0.015	1.02 ± 0.048	0.985 ± 0.019	1.01 ± 0.034	0.999 ± 0.021	1.01 ± 0.043

2 entries from above, reformatted.
Target | NP40-soluble protein abundance (concentration: 1mM) | NP40-soluble protein abundance (concentration: 2mM) | NP40-soluble protein abundance (concentration: 4mM) | NP40-soluble protein abundance (concentration: 6mM) | NP40-soluble protein abundance (concentration: 8mM) | NP40-soluble protein abundance (concentration: 10mM)
FEN1 (UniProt P39748) | 1.02 ± 0.018 | 1.04 ± 0.081 | 1.01 ± 0.07 | 1.04 ± 0.022 | 0.991 ± 0.053 | 1.04 ± 0.059
UniProt P17706 and related entries | 0.943 ± 0.054 | 0.971 ± 0.017 | 0.981 ± 0.074 | 1.017 ± 0.0033 | 0.989 ± 0.037 | 1.02 ± 0.04
